Data as given in PubChem BioAssay AID504791 (Drosophila RNAi Screening Center, 2011).
The screen tested about 23,000 reagents; below is an unselected part of those with a known target gene and a result. Over the whole deposit, 199 (0.86%) were called active. 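Plate-scaled ratios behind the calls are not deposited; printed light signals are raw; many rows marked increased or decreased are still called inactive.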 The numbers tell different reagents against one gene apart.

Test: 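Genes of the fly required for silencing by miRNA, siRNA or endo-siRNA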 (primary screen)
Cells: Drosophila S2-derived reporter cells
Reagents: long dsRNA against Drosophila genes, about 150-250 ng dsRNA per well (siRNA assay); about 80-120 ng (miRNA assay)
Time to read-out: about 5 days (siRNA assay); about 4 days (miRNA assay)
Challenge: copper sulfate induction of reporters: 25 µM (siRNA assay); 200 mM stated (miRNA assay), 1-2 days before reading
Read-out: 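Per-well ratio of Renilla over firefly light, expressed relative to that plate's average ratio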
Direction: siRNA reporter hit score: higher = 3 marks a strong hit with raised ratio; -3 a strong hit with lowered ratio
Rule for the call: 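First-pass picks had plate-scaled ratios over 1.5 for the siRNA assay, over 1.6 for the miRNA assay, or under 0.6; two distinct dsRNAs had to score alike on retest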

Gene,reagent,siRNA reporter hit score,stable siRNA reporter change,miRNA reporter change,"stable assay Renilla, run 1 (luminescence)","stable assay firefly, run 1 (luminescence)",call
Ugt303B2 (UDP-glycosyltransferase family 303 member B2),1,,,,7590,3.28e5,inactive
Ugt303B2 (UDP-glycosyltransferase family 303 member B2),2,,,,5575,5.82e5,inactive
Cys (Cystatin-like),1,,,,6831,4.08e5,inactive
Lipt2 (Lipoyl(octanoyl) transferase 2),1,,,,3527,2.73e5,inactive
Lipt2 (Lipoyl(octanoyl) transferase 2),2,,,,2767,3.27e5,inactive
CG7884,1,,,,6804,3.67e5,inactive
CG12909,1,,,,7392,4.36e5,inactive
CROT (Carnitine O-octanoyltransferase),1,,,,8197,4.86e5,inactive
CROT (Carnitine O-octanoyltransferase),2,,,,6270,4.39e5,inactive
Wee1 (Wee1 kinase),1,,,,7478,4.26e5,inactive
Wee1 (Wee1 kinase),2,,,,5207,3.04e5,inactive
mRpS26 (mitochondrial ribosomal protein S26),1,,,,6674,3.06e5,inactive
CG14285,1,,,,7854,4.74e5,inactive
Atpalpha (Na pump alpha subunit),1,,,,9033,3.12e5,inactive
CG17742 (retired record),1,,,,5835,2.48e5,inactive
CG4956,1,,,,6162,2.87e5,inactive
nej (nejire),1,,,,4435,3.68e5,inactive
nej (nejire),2,,,,6790,4.84e5,inactive
Apl (Apollo),1,,,,9485,4.70e5,inactive
Dh44-R1 (Diuretic hormone 44 receptor 1),1,,,,8029,5.92e5,inactive
CG2712,1,,,,8611,5.08e5,inactive
Actn3 (alpha actinin 3),1,,,,5984,3.90e5,inactive
sta (stubarista),1,,,,5891,3.62e5,inactive
CG12502,1,,,,6112,3.53e5,inactive
CG12502,2,,,,4255,2.98e5,inactive
Prp4k (Pre-mRNA processing factor 4 kinase),1,,,,8064,2.85e5,inactive
GluRIIC (Glutamate receptor IIC),1,,,,40390,1.80e5,inactive
eca (eclair),1,,,,12034,8.31e5,inactive
CG9902,1,,,,6247,4.87e5,inactive
CG10104,1,,,,6459,4.45e5,inactive
Eig71Ek,1,,,,9184,3.97e5,inactive
Der-2 (Derlin-2),1,,,,7394,4.49e5,inactive
CG17721,1,,,,6526,4.04e5,inactive
robl37BC,1,,,,6855,4.48e5,inactive
CG46491,1,,,,16081,4.99e5,inactive
CG46491,2,,,,6632,3.44e5,inactive

Next part, starting with the last 2 of the part before.
Gene,reagent,siRNA reporter hit score,stable siRNA reporter change,miRNA reporter change,"stable assay Renilla, run 1 (luminescence)","stable assay firefly, run 1 (luminescence)",call
CG46491,1,,,,16081,4.99e5,inactive
CG46491,2,,,,6632,3.44e5,inactive
Panx (Panoramix),1,,,,6474,3.86e5,inactive
Sans (Scaffold protein containing ankyrin repeats and SAM domain),1,,reporter ratio lowered past the hit cutoff,,4443,4.94e5,inactive
CRAT (Carnitine O-Acetyl-Transferase),1,,,,6647,3.89e5,inactive
KLHL18 (Kelch like family member 18),1,,,,9519,5.01e5,inactive
CR11700 (retired record),1,3,reporter ratio raised past the hit cutoff,reporter ratio raised past the hit cutoff,7530,2.31e5,active
CR11700 (retired record),2,,,reporter ratio raised past the hit cutoff,,,active
LysS (Lysozyme S),1,,,,6278,3.07e5,inactive
CG15219,1,,,,5999,4.72e5,inactive
chb (chromosome bows),1,,,,6239,4.66e5,inactive
CG13062,1,,,,6890,3.80e5,inactive
Rme-8 (Receptor mediated endocytosis 8),1,,reporter ratio lowered past the hit cutoff,,6951,5.91e5,inactive
CG11550,1,,,,6548,3.89e5,inactive
CG13627,1,,,,7062,2.96e5,inactive
CG3817,1,,,,9047,4.25e5,inactive
CG11360,1,,,,8351,3.42e5,inactive
CG11360,2,,,,6198,3.12e5,inactive
eco (Establishment of cohesion),1,,,,8150,3.48e5,inactive
Obp19a (Odorant-binding protein 19a),1,,,,5639,3.76e5,inactive
Sec31 (Secretory 31),1,,,,7283,3.71e5,inactive
CG10466,1,,,,7451,6.00e5,inactive
Lrch (Leucine-rich-repeats and calponin homology domain protein),1,,,,8134,2.18e6,inactive
